# Patent US10525115B2 (Immatics Biotechnologies GmbH, priority 2014, dated 2020)
# Tests used:
# primary AML samples = assay: HLA class I ligandome analysis (W6/32 immunoaffinity purification, LC-MS/MS) of primary AML samples; set-up: species or system human; details: AML patients (n=15)
# [1] = system: cancer tissues in comparison to non-cancerous tissues and organs; assay: Presentation profile / over-presentation by label-free LC-MS (XPRESIDENT), tumor versus normal tissues, other proliferative diseases; set-up: species or system human; details: other proliferative diseases / organs (other than AML) that over- or exclusively present the peptide; Table 5
# [2] = HLA class I ligandome, count for the HLA ligand (LiTAP) or, on protein lines, for the source protein (LiTAA)
Substance,Number of positive AMLs (primary AML samples; HLA ligand (LiTAP)),Proliferative disease and location thereof [1],Number of positive AMLs (primary AML samples; [2])
265 (HEYTTKEVF; listed as Homo sapiens) [compound 265],1,"liver, hepatocellular carcinoma, cancer, colon, adenocarcinoma",–
14 (EVAEHVQYM; listed as Homo sapiens) [compound 14],–,"colon or rectum, prostate, benign nodular; hyperplasia",3
294 (FPPGRQVVM; listed as Homo sapiens) [compound 294],2,"brain, cancer, lymph node, malignant melanoma",–
202 (TVADQVLVGSY; listed as Homo sapiens) [compound 202],–,"stomach, adenocarcinoma, colon, adenocarcinoma",1
270 (EVGPREAGLR; listed as Homo sapiens) [compound 270],2,"kidney, clear cell renal cell carcinoma, kidney, transitional cell carcinoma",–
20 (IEDKAQILL; listed as Homo sapiens) [compound 20],–,malignant fibrous histiocytoma,3
144 (ARIEIGLHY; listed as Homo sapiens) [compound 144],–,"liver, focal nodular hyperplasia",1
171 (SFMTHPEF; listed as Homo sapiens) [compound 171],–,"stomach, adenocarcinoma, myometrium, leiomyoma",1
189 (SEIAESHRF; listed as Homo sapiens) [compound 189],–,"liver, hepatocellular carcinoma, cancer, liver, hepatocellular carcinoma",2
38 (EVVYRFTAR; listed as Homo sapiens) [compound 38],–,"stomach, metastatic, adenocarcinoma",1
306 (RTLNPQMLQK; listed as Homo sapiens) [compound 306],1,"colon or rectum, testis, seminoma",–
304 (DAKTVNVI; listed as Homo sapiens) [compound 304],1,"colon or rectum, testis, seminoma",–
118 (DADSRAATV; listed as Homo sapiens) [compound 118],–,"liver, hepatocellular carcinoma, kidney, renal cell carcinoma",1
96 (ALYSVYRQK; listed as Homo sapiens) [compound 96],–,"kidney, angiomyolipoma",2
319 (FLRDPAEAL; listed as Homo sapiens) [compound 319],1,"breast, carcinoma",–
119 (DHEGFGFVL; listed as Homo sapiens) [compound 119],–,"liver, hepatocellular carcinoma, kidney, renal cell carcinoma",1
298 (LPEDKPRLI; listed as Homo sapiens) [compound 298],1,"colon or rectum, adenocarcinoma",–
268 (KELLAVKL; listed as Homo sapiens) [compound 268],1,"pancreas, adenocarcinoma, lung, adenocarcinoma",–
73 (ESADLIQHY; listed as Homo sapiens) [compound 73],–,"pancreas, adenocarcinoma, kidney, renal cell carcinoma",4
7 (GQLPITIQV; listed as Homo sapiens) [compound 7],–,"kidney, clear cell renal cell carcinoma, bone, non- ossifying fibroma",1
280 (SLVDQSAAL; listed as Homo sapiens) [compound 280],1,"colon or rectum, fibromatosis",–
172 (HYTIVFNTF; listed as Homo sapiens) [compound 172],–,"colon or rectum, myometrium, leiomyoma",1
18 (EIIGKRGIIGY; listed as Homo sapiens) [compound 18],–,"colon or rectum, kidney, carcinoma",4
310 (VRIGTILIQTNQ; listed as Homo sapiens) [compound 310],1,"stomach, metastatic, breast, carcinoma",–
315 (KILDLETEL; listed as Homo sapiens) [compound 315],1,"stomach, metastatic, breast, carcinoma",–
212 (LHDETLTYL; listed as Homo sapiens) [compound 212],–,"stomach, adenocarcinoma, ovary, adenocarcinoma",1

Substance,Number of positive AMLs (primary AML samples; HLA ligand (LiTAP)),Proliferative disease and location thereof [1],Number of positive AMLs (primary AML samples; [2])
146 (DVSGKTALNQ; listed as Homo sapiens) [compound 146],–,"kidney, clear cell renal cell carcinoma, stomach, gastrointestinal stromal tumor (GIST)",1
45 (SEETFRFEL; listed as Homo sapiens) [compound 45],–,"stomach, adenocarcinoma, endometrium, adenocarcinoma",1
185 (LKAVPSQKRT; listed as Homo sapiens) [compound 185],–,"lung, non-small cell lung carcinoma, stomach, adenocarcinoma",1
255 (KQQLELDSI; listed as Homo sapiens) [compound 255],1,"pancreas, adenocarcinoma, myometrium, leiomyoma",–
165 (KEDIPGRHSY; listed as Homo sapiens) [compound 165],–,"stomach, adenocarcinoma, spleen, chronic; myeloid leukemia",1
69 (RQIGVEHVV; listed as Homo sapiens) [compound 69],–,"brain, cancer, kidney, oncocytoma",1
276 (NEGQTALHY; listed as Homo sapiens) [compound 276],1,"colon or rectum, endometrium, Mullerian mixed; tumor",–
195 (FSKAKPSVL; listed as Homo sapiens) [compound 195],–,"liver, hepatocellular carcinoma, breast, infiltrating; lobular carcinoma",2
106 (GQSRLIFTY; listed as Homo sapiens) [compound 106],–,"stomach, metastatic, duodenum, adenocarcinoma",1
51 (GQSLIHVI; listed as Homo sapiens) [compound 51],–,"parathyroid gland, adenoma",1
103 (VLHQDSGLGY; listed as Homo sapiens) [compound 103],–,"stomach, adenocarcinoma, liver, carcinoid tumor, metastatic",1
95 (FLDITNPKA; listed as Homo sapiens) [compound 95],–,"stomach, differentiated subtype adenocarcinoma, lung, small cell carcinoma",2
275 (SVFEKSVGY; listed as Homo sapiens) [compound 275],1,"kidney, clear cell renal cell carcinoma, kidney, angiomyolipoma",–
213 (GPQEGNGPSLF; listed as Homo sapiens) [compound 213],–,"colon or rectum, synovial sarcoma",1
133 (FAQIISVALI; listed as Homo sapiens) [compound 133],–,"stomach, adenocarcinoma, parathyroid gland, adenoma",1
181 (EVSPNLVRY; listed as Homo sapiens) [compound 181],–,"stomach, metastatic, pancreas, adenocarcinoma",2
104 (YLQNHFVGL; listed as Homo sapiens) [compound 104],–,"stomach, adenocarcinoma, liver, carcinoid tumor, metastatic",1
111 (RIQGYVVSW; listed as Homo sapiens) [compound 111],–,"lung, non-small cell lung carcinoma, spleen, extramedullary hematopoiesis",1
167 (YEILIHDL; listed as Homo sapiens) [compound 167],–,"stomach, adenocarcinoma, spleen, chronic; myeloid leukemia",3
233 (EELQRNISL; listed as Homo sapiens) [compound 233],–,"kidney, clear cell renal cell carcinoma, ovary, adenocarcinoma",1
68 (IGVEHVVVY; listed as Homo sapiens) [compound 68],–,"brain, cancer, kidney, oncocytoma",4
159 (ETLERLQEL; listed as Homo sapiens) [compound 159],–,"liver, hepatocellular carcinoma, cancer, parotid; gland, pleomorphic adenoma",1
127 (DAIKVFVRI; listed as Homo sapiens) [compound 127],–,"stomach, adenocarcinoma, kidney, Wilm's tumor",1
288 (YSGPTSVSR; listed as Homo sapiens) [compound 288],1,"colon or rectum, stomach, adenocarcinoma",–
225 (FAKSQSKTF; listed as Homo sapiens) [compound 225],–,atypical lipoma,2
